{"source": "PubChem BioAssay AID652243 (Drosophila RNAi Screening Center, 2013)", "purpose": "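Fly regulators of androgen-dependent reporter output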 (primary screen)", "cells": "Drosophila S2R+ cells", "knock-down reagent": "long dsRNA against Drosophila genes", "time to read-out": "72 h (48 h, then 24 h hormone)", "treatment": "synthetic androgen R1881 at 10 nM for 24 h", "read-out": "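Firefly light from an androgen-responsive reporter and Renilla control light per well, raw and unnormalised, for each of two replicates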", "direction": "firefly reporter light: higher = more light from androgen-responsive reporter; Renilla control light: higher = more constitutive control signal (cell number, transfection)", "hit rule": "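Hit when the log firefly-to-Renilla ratio dropped or increased by a fixed fold versus the mean of GFP or LacZ controls across duplicate plates; lowering cut given as 1.5 and as 3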", "meaning of the calls": "active = hit: reporter lowered or raised; inactive = no hit", "note": "The screen tested about 24,000 reagents; below is an unselected part of those with a known target gene and a result. In the full data, 246 (1%) got an active call. 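Plates not normalised; calls are printed but the firefly/Renilla ratio behind them is not deposited; fold cut for lowering reported inconsistently.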 Raw values vary from plate to plate and are shown uncorrected. Unmarked entries are inactive. Names joined by + are all predicted targets of the reagent. No sequences are given here. The record does not give: the amount of reagent."}
The opening 2 entries, ahead of the listing:
{"gene":"jagn","dsRNA":"DRSC12152","firefly reporter light, replicate 1":65383,"firefly reporter light, replicate 2":83111,"Renilla control light, replicate 1":4.93e5,"Renilla control light, replicate 2":4.40e5}
{"gene":"dsx","dsRNA":"DRSC12649","firefly reporter light, replicate 1":1.27e5,"firefly reporter light, replicate 2":81521,"Renilla control light, replicate 1":1.57e5,"Renilla control light, replicate 2":1.68e5}

The listing, from the start:
{"gene":"jagn","dsRNA":"DRSC12152","firefly reporter light, replicate 1":65383,"firefly reporter light, replicate 2":83111,"Renilla control light, replicate 1":4.93e5,"Renilla control light, replicate 2":4.40e5}
{"gene":"dsx","dsRNA":"DRSC12649","firefly reporter light, replicate 1":1.27e5,"firefly reporter light, replicate 2":81521,"Renilla control light, replicate 1":1.57e5,"Renilla control light, replicate 2":1.68e5}
{"gene":"dsx","dsRNA":"DRSC16934","firefly reporter light, replicate 1":1.50e5,"firefly reporter light, replicate 2":1.37e5,"Renilla control light, replicate 1":1.56e6,"Renilla control light, replicate 2":1.57e6}
{"gene":"dsx","dsRNA":"DRSC21495","firefly reporter light, replicate 1":7.10e5,"firefly reporter light, replicate 2":5.71e5,"Renilla control light, replicate 1":3.22e6,"Renilla control light, replicate 2":2.26e6}
{"gene":"dsx","dsRNA":"DRSC26707","firefly reporter light, replicate 1":4.16e5,"firefly reporter light, replicate 2":3.76e5,"Renilla control light, replicate 1":6.66e5,"Renilla control light, replicate 2":6.29e5}
{"gene":"Acp53C14b","dsRNA":"DRSC06569","firefly reporter light, replicate 1":38786,"firefly reporter light, replicate 2":70061,"Renilla control light, replicate 1":6.15e5,"Renilla control light, replicate 2":6.15e5}
{"gene":"CG9117","dsRNA":"DRSC03141","firefly reporter light, replicate 1":2.21e5,"firefly reporter light, replicate 2":1.64e5,"Renilla control light, replicate 1":1.99e6,"Renilla control light, replicate 2":1.13e6}
{"gene":"mRpS9","dsRNA":"DRSC12645","firefly reporter light, replicate 1":4.23e5,"firefly reporter light, replicate 2":2.70e5,"Renilla control light, replicate 1":5.39e5,"Renilla control light, replicate 2":6.02e5}
{"gene":"mRpS9","dsRNA":"DRSC15456","firefly reporter light, replicate 1":4.48e5,"firefly reporter light, replicate 2":6.11e5,"Renilla control light, replicate 1":3.23e6,"Renilla control light, replicate 2":3.24e6}
{"gene":"Myb","dsRNA":"DRSC20260","firefly reporter light, replicate 1":53935,"firefly reporter light, replicate 2":61234,"Renilla control light, replicate 1":5.38e5,"Renilla control light, replicate 2":4.40e5}
{"gene":"CG18004","dsRNA":"DRSC06705","firefly reporter light, replicate 1":5.64e5,"firefly reporter light, replicate 2":7.37e5,"Renilla control light, replicate 1":7.29e5,"Renilla control light, replicate 2":8.22e5}
{"gene":"CG18004","dsRNA":"DRSC26317","firefly reporter light, replicate 1":2.88e5,"firefly reporter light, replicate 2":3.28e5,"Renilla control light, replicate 1":5.59e5,"Renilla control light, replicate 2":5.19e5}
{"gene":"thr","dsRNA":"DRSC07706","firefly reporter light, replicate 1":1.06e6,"firefly reporter light, replicate 2":7.41e5,"Renilla control light, replicate 1":2.16e6,"Renilla control light, replicate 2":1.52e6}
{"gene":"fabp + sea","dsRNA":"DRSC16114","firefly reporter light, replicate 1":80253,"firefly reporter light, replicate 2":96385,"Renilla control light, replicate 1":3.33e5,"Renilla control light, replicate 2":5.37e5}
{"gene":"fabp + sea","dsRNA":"DRSC16115","firefly reporter light, replicate 1":50887,"firefly reporter light, replicate 2":47308,"Renilla control light, replicate 1":3.51e5,"Renilla control light, replicate 2":4.57e5}
{"gene":"stum","dsRNA":"DRSC04268","firefly reporter light, replicate 1":2.57e5,"firefly reporter light, replicate 2":2.04e5,"Renilla control light, replicate 1":1.61e6,"Renilla control light, replicate 2":1.72e6}
{"gene":"stum","dsRNA":"DRSC04270","firefly reporter light, replicate 1":1.93e5,"firefly reporter light, replicate 2":1.41e5,"Renilla control light, replicate 1":1.27e6,"Renilla control light, replicate 2":1.06e6}
{"gene":"CG34025","dsRNA":"DRSC38853","firefly reporter light, replicate 1":9.66e5,"firefly reporter light, replicate 2":9.28e5,"Renilla control light, replicate 1":2.05e6,"Renilla control light, replicate 2":1.79e6}
{"gene":"Hs6st","dsRNA":"DRSC14348","firefly reporter light, replicate 1":3.78e5,"firefly reporter light, replicate 2":4.13e5,"Renilla control light, replicate 1":4.49e6,"Renilla control light, replicate 2":4.59e6}
{"gene":"Hs6st","dsRNA":"DRSC15182","firefly reporter light, replicate 1":2.59e5,"firefly reporter light, replicate 2":1.94e5,"Renilla control light, replicate 1":3.53e6,"Renilla control light, replicate 2":3.41e6}
{"gene":"Hs6st","dsRNA":"DRSC15581","firefly reporter light, replicate 1":3.06e5,"firefly reporter light, replicate 2":3.04e5,"Renilla control light, replicate 1":2.76e6,"Renilla control light, replicate 2":2.36e6}
{"gene":"Hs6st","dsRNA":"DRSC21732","firefly reporter light, replicate 1":6.13e5,"firefly reporter light, replicate 2":6.22e5,"Renilla control light, replicate 1":4.13e6,"Renilla control light, replicate 2":5.23e6}
